# Test results: patent publication US20260274991A1
# Sequences of proteins named here, by UniProt entry; tags and fusion partners are left off. A change or cut given only in a name is not applied to a line headed by its entry.
# UniProt P07478: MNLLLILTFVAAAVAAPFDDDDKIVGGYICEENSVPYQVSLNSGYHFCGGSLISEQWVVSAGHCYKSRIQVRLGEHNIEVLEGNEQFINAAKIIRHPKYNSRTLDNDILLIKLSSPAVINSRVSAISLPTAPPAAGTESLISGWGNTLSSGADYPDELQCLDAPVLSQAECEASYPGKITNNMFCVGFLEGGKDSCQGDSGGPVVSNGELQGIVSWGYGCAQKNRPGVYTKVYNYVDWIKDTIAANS
# UniProt P07477: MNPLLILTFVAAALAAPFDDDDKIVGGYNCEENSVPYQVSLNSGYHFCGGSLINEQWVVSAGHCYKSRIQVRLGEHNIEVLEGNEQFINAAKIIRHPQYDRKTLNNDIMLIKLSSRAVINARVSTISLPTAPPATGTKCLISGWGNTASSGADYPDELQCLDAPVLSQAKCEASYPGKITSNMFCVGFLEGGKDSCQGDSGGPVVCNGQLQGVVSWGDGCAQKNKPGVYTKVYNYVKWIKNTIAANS
# Where a chain is given by its changes, count along the chain named. No constants are given. Whether binding was seen depends on the method and setting. Some binding calls cover weakened binding; strength is not graded here.
# B1: Trypsin 1/Trypsin 2-Dual-L1-Ab1 (antibody, V domains shown)
# VH: EVQLLESGGGLVQPGGSLRLSCAASGFTFSSYAMSWVRQAPGKGLEWVSAISASGGSTYYADSVKGRFTISRDNSKNTLYLQMNSLRAEDTAVYYCARGSPIGYSYARVSYYYYMDVWGKGTTVTVSS
# VL: DIQMTQSPSSVSASVGDRVTITCRASQGISRWLAWYQQKPGKAPKLLIYAASSLQSGVPSRFSGSGSGTDFTLTISSLQPEDFATYYCQQGNSFPLTFGGGTKVEIK
# B2: Trypsin 1/Trypsin 2-Dual-L1-Ab2 (antibody, V domains shown)
# VH: B1 VH with S30G, S31D, S35W, G56D, S57V, P101L, M115S
# VL: B1 VL with N92W
# B3: Trypsin 1/Trypsin 2-Dual-L2-Ab1 (antibody, V domains shown)
# VH: QVQLQESGPGLVKPSETLSLTCTVSGGSISSYYWSWIRQPAGKGLEWIGRIYTSGSTNYNPSLKSRVTMSVDTSKNQFSLKLSSVTAADTAVYYCARDLTNYGSGKSIRFYGMDVWGQGTTVTVSS
# VL: DIQMTQSPSSLSASVGDRVTITCQASQDISNYLNWYQQKPGKAPKLLIYDASNLETGVPSRFSGSGSGTDFTFTISSLQPEDIATYYCQQDDNFITFGGGTKVEIK
# B4: Trypsin 1/Trypsin 2-Dual-L2-Ab2 (antibody, V domains shown)
# VH: B3 VH with Y32N, S35H, Y52H, N58F, L99I, G112P
# VL: B3 VL with N93T
# B5: Trypsin 1/Trypsin 2-Dual-L2-Ab3 (antibody, V domains shown)
# VH: B3 VH with Y32H, S35H, Y52A, N58Y, S104I, G105T
# VL: B3 VL with D91V
# B6: Trypsin 1/Trypsin 2-Dual-L2-Ab4 (antibody, V domains shown)
# VH: B3 VH with Y32H, S35H, Y52H, N58F, S104W, G105S
# VL: B3 VL with D91T
# B7: Trypsin 1/Trypsin 2-Dual-L3-Ab2 (antibody, V domains shown)
# VH: QVQLVQSGAEVKKPGASVKVSCKASGYTFTDHYMHWVRQAPGQGLEWMGAINPSSGGTAYAQKFQGRVTMTRDTSISTAYMELSRLRSDDTAVYYCARVGGAARVGKAYTASAFDIWGQGTMVTVSS
# VL: EIVMTQSPATLSVSPGERATLSCRASQSVGSNLAWYQQKPGQAPRLLIYGASTRATGIPARFSGSGSGTEFTLTISSLQSEDFAVYYCQQFHNWPPLTFGGGTKVEIK
# B8: Trypsin 1/Trypsin 2-Dual-L4-Ab1 (antibody, V domains shown)
# VH: QVQLVQSGAEVKKPGASVKVSCKASGYTFTSYGISWVRQAPGQGLEWMGWISAYSGDTNYAQKLQGRVTMTTDTSTSTAYMELRSLRSDDTAVYYCARGDEVVGKMTYYYGMDVWGQGTTVTVSS
# VL: B1 VL with G91A, L96I
# B9: Trypsin 1/Trypsin 2-Dual-L4-Ab2 (antibody, V domains shown)
# VH: B8 VH with S31D, G33A, Y54S, S55T, G56A
# VL: B1 VL with G91A, L96I
# B10: Trypsin 1/Trypsin 2-Dual-L4-Ab3 (antibody, V domains shown)
# VH: B8 VH with S31D, G33A, Y54S, S55T, G56A, M106R, Y110I
# VL: B1 VL with G91A, L96I
# B11: Trypsin 1/Trypsin 2-Dual-L4-Ab4 (antibody, V domains shown)
# VH: B8 VH with S31D, G33A, Y54S, S55T, G56A, D100T, Y108V, Y110L
# VL: B1 VL with G91A, L96I
# B12: Trypsin 1/Trypsin 2-Dual-L5-Ab2 (antibody, V domains shown)
# VH: QVQLVQSGAEVKKPGASVKVSCKASGYTFEGHYMHWVRQAPGQGLEWMGAINPYSGQTNYAQKFQGRVTMTRDTSISTAYMELSRLRSDDTAVYYCARDFVLLLRQSRILHESAFDIWGQGTTVTVSS
# VL: B7 VL
# How the values were obtained:
# [1] = biological target: human trypsin 2 with serine to alanine mutation (including a His tag at C terminus) (human) (UniProt P07478); assay: SPR (Biacore) screen
# [2] = biological target: human trypsin 1 with serine to alanine mutation (including a His tag at C terminus) (human) (UniProt P07477); assay: SPR (Biacore) screen
Binder,binding [1],binding [2]
B1,binds,
B2,binds,
B3,binds,
B4,binds,
B5,binds,binds
B6,binds,
B7,binds,
B8,binds,
B9,binds,
B10,binds,
B11,binds,
B12,binds,
